In PMC3814407:
No constants are given. Whether binding was seen depends on the method and setting. Some entries that bind do so weakly or less than the wild type.

The chains behind the UniProt entries cited, without tags or fusion partners. Residues count along the entry.
UniProt Q7DDB6, residues 26-921: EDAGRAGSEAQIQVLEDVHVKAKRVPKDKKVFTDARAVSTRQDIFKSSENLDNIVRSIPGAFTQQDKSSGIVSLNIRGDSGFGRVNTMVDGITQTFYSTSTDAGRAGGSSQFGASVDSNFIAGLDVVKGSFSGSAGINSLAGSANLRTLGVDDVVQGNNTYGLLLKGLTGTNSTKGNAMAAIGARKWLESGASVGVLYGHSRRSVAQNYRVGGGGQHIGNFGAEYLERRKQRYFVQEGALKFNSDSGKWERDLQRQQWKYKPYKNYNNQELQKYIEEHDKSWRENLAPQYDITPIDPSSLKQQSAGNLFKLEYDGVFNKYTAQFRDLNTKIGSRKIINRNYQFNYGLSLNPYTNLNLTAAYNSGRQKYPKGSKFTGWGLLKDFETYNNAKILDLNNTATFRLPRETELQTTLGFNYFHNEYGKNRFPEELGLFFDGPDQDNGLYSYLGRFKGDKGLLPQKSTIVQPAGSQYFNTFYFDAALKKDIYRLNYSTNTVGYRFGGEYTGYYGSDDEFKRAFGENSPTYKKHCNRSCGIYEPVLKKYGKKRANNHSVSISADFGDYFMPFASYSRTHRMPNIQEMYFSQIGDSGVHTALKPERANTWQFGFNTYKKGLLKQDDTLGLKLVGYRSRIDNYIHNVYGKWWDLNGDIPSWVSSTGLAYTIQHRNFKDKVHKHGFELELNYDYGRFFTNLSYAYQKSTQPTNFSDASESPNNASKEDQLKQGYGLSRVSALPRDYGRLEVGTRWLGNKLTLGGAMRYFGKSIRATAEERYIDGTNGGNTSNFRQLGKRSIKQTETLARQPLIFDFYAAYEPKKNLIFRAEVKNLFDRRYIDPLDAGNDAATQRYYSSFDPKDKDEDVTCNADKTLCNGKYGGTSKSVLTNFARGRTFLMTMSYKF

Columns and labels:
[1] = target: CbpA (calprotectin-binding protein A) of Neisseria meningitidis (N. meningitidis strain H44/76) (UniProt Q7DDB6); assay: binding to intact bacterial cells, cell-bound protein detected by Western blot; cells from 1 ml culture (OD550 1.0) incubated 1 h in 1 ml HBSS with 4 µg calprotectin, washed three times, lysates blotted with mAb 27E10; cells grown with or without 100 µM IPTG; in Figure 3D also with 1 µg/ml ZnSO4 or MnCl2 (binding enhanced); only the binder purified
[2] = target: CbpA (calprotectin-binding protein A) of Neisseria meningitidis (N. meningitidis strain H44/76) (UniProt Q7DDB6); assay: condition: only cells grown without IPTG (cbpA not induced); 4 µg calprotectin in 1 ml; binding to intact bacterial cells, cell-bound protein detected by Western blot; cells from 1 ml culture (OD550 1.0) incubated 1 h in 1 ml HBSS with 4 µg calprotectin, washed three times, lysates blotted with mAb 27E10; cells grown with or without 100 µM IPTG; in Figure 3D also with 1 µg/ml ZnSO4 or MnCl2 (binding enhanced); only the binder purified

B1: calprotectin (complex, UniProt P05109 1-93; P06702 1-114)
chain 1: MLTELEKALNSIIDVYHKYSLIKGNFHAVYRDDLKKLLETECPQYIRKKGADVWFKELDINTDGAVNFQEFLILVIKMGVAAHKKSHEESHKE
chain 2: MTCKMSQLERNIETIINTFHQYSVKLGHPDTLNQGEFKELVRKDLQNFLKKENKNEKVIEHIMEDLDTNADKQLSFEEFIMLMARLTWASHEKMHEGDEGPGHHHKPGLGEGTP
Question: How did the binding [1] turn out when B1 was run?
Answer: binds

Question: What about the binding [2] of the same binder?
Answer: no binding
